Assay results: patent US20140073658A1, “Dipyridylamine Derivative” (Daiichi Sankyo Company, Limited, priority 2011, published 2014)
Some of these results come from one statement about several compounds together. At least one structure is not confirmed: it was looked up by name or label, or the drawing left a doubt.

target: T1, human pancreatic GK (human glucokinase variant 1, GST-fused) (Homo sapiens, UniProt P35557); assay: GK activity test (GK activation ratio); type: biochemical; conditions: test compound concentration 10 μM; glucose final concentration 5 mM; 30 minutes at room temperature; absorbance 340 nm
T1 construct: GST; made in house; host or cells: Escherichia coli (such as BL21)
T1 sequence (P35557 1-465): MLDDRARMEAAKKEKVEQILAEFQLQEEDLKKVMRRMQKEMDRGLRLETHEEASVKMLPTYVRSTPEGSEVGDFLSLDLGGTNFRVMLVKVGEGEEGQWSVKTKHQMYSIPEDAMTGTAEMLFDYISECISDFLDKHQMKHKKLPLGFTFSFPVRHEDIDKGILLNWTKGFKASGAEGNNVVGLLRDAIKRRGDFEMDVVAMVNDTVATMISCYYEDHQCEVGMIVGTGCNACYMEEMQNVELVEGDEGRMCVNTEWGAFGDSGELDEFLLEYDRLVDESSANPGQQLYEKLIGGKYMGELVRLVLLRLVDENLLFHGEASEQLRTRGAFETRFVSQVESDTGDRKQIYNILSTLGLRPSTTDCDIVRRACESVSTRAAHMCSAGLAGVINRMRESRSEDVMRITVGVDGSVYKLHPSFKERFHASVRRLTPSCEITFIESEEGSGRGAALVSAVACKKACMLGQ

SMILES | GK activation ratio (absorbance after reacting for 30 minutes when test compound added)/(when test compound not added) [times]
COCCC(C)Sc1cnc(Nc2ccc(-c3nnn[nH]3)cn2)c(Oc2ccc(F)cc2F)c1.O=C(O)C(F)(F)F (single isomer, unassigned) [Example 65, [3-(2,4-Difluorophenoxy)-5-(3-methoxy-1-methylpropylsulfanyl)pyridin-2-yl]-[5-(1H-tetrazol-5-yl)pyridin-2-yl]amine trifluoroacetate] | ≥ 1.4
Fc1ccc(Oc2cc(Sc3ccccn3)cnc2Nc2ccc(-c3nnn[nH]3)cn2)cc1F [Example 1, [3-(3,4-Difluorophenoxy)-5-(pyridin-2-ylsulfanyl)pyridin-2-yl]-[5-(1H-tetrazol-5-yl)pyridin-2-yl]amine] | ≥ 1.4
Fc1ccc(Oc2cc(Sc3ccccn3)cnc2Nc2ccc(-c3nnn[nH]3)cn2)cc1 [Example 2, [3-(4-Fluorophenoxy)-5-(pyridin-2-ylsulfanyl)pyridin-2-yl]-[5-(1H-tetrazol-5-yl)pyridin-2-yl]amine] | ≥ 1.4
Fc1ccc(Oc2cc(Sc3ccccn3)cnc2Nc2ccc(-c3nnn[nH]3)cn2)c(Cl)c1 [Example 3, [3-(2-Chloro-4-fluorophenoxy)-5-(pyridin-2-ylsulfanyl)pyridin-2-yl]-[5-(1H-tetrazol-5-yl)pyridin-2-yl]amine] | ≥ 1.4
Fc1ccc(Oc2cc(Sc3ccccn3)cnc2Nc2ccc(-c3nnn[nH]3)cn2)c(F)c1 [Example 4, [3-(2,4-Difluorophenoxy)-5-(pyridin-2-ylsulfanyl)pyridin-2-yl]-[5-(1H-tetrazol-5-yl)pyridin-2-yl]amine] | ≥ 1.4
CS(=O)(=O)c1ccc(Oc2cc(Sc3ccccn3)cnc2Nc2ccc(-c3nnn[nH]3)cn2)cc1 [Example 5, {3-[4-(Methylsulfonyl)phenoxy]-5-(pyridin-2-ylsulfanyl)pyridin-2-yl}-[5-(1H-tetrazol-5-yl)pyridin-2-yl]amine] | ≥ 1.4
CN(C)C(=O)c1ccc(Oc2cc(Sc3ccccn3)cnc2Nc2ccc(-c3nnn[nH]3)cn2)cc1 [Example 6, N,N-Dimethyl-4-{5-(pyridin-2-ylsulfanyl)-2-[5-(1H-tetrazol-5-yl)pyridin-2-ylamino]pyridin-3-yloxy}benzamide] | ≥ 1.4
FC(F)(F)c1ccc(Oc2cc(Sc3ccccn3)cnc2Nc2ccc(-c3nnn[nH]3)cn2)cc1 [Example 7, [5-(Pyridin-2-ylsulfanyl)-3-(4-trifluoromethylphenoxy)pyridin-2-yl]-[5-(1H-tetrazol-5-yl)pyridin-2-yl]amine] | ≥ 1.4
Fc1ccc(Oc2cc(Sc3ncccn3)cnc2Nc2ccc(-c3nnn[nH]3)cn2)cc1 [Example 8, [3-(4-Fluorophenoxy)-5-(pyrimidin-2-ylsulfanyl)pyridin-2-yl]-[5-(1H-tetrazol-5-yl)pyridin-2-yl]amine] | ≥ 1.4
Fc1ccc(Oc2cc(Sc3ncccn3)cnc2Nc2ccc(-c3nnn[nH]3)cn2)cc1F [Example 9, [3-(3,4-Difluorophenoxy)-5-(pyrimidin-2-ylsulfanyl)pyridin-2-yl]-[5-(1H-tetrazol-5-yl)pyridin-2-yl]amine] | ≥ 1.4
Fc1ccc(Oc2cc(Sc3nnc[nH]3)cnc2Nc2ccc(-c3nnn[nH]3)cn2)cc1 [Example 10, [3-(4-Fluorophenoxy)-5-(4H-[1,2,4]triazol-3-ylsulfanyl)pyridin-2-yl]-[5-(1H-tetrazol-5-yl)pyridin-2-yl]amine] | ≥ 1.4
Cn1cnnc1Sc1cnc(Nc2ccc(-c3nnn[nH]3)cn2)c(Oc2ccc(F)cc2)c1 [Example 11, [3-(4-Fluorophenoxy)-5-(4-methyl-4H-[1,2,4]triazol-3-ylsulfanyl)pyridin-2-yl]-[5-(1H-tetrazol-5-yl)pyridin-2-yl]amine] | ≥ 1.4
Cn1cnc(Sc2cnc(Nc3ccc(-c4nnn[nH]4)cn3)c(Oc3ccc(F)cc3)c2)n1 [Example 12, [3-(4-Fluorophenoxy)-5-(1-methyl-1H-[1,2,4]triazol-3-ylsulfanyl)pyridin-2-yl]-[5-(1H-tetrazol-5-yl)pyridin-2-yl]amine] | ≥ 1.4
Cc1cccnc1Sc1cnc(Nc2ccc(-c3nnn[nH]3)cn2)c(Oc2ccc(F)cc2)c1 [Example 13, [3-(4-Fluorophenoxy)-5-(3-methylpyridin-2-ylsulfanyl)pyridin-2-yl]-[5-(1H-tetrazol-5-yl)pyridin-2-yl]amine] | ≥ 1.4
Fc1ccc(Oc2cc(Sc3ncccc3C(F)(F)F)cnc2Nc2ccc(-c3nnn[nH]3)cn2)cc1 [Example 14, [3-(4-Fluorophenoxy)-5-(3-trifluoromethylpyridin-2-ylsulfanyl)pyridin-2-yl]-[5-(1H-tetrazol-5-yl)pyridin-2-yl]amine] | ≥ 1.4
CCOC(=O)c1ccc(Sc2cnc(Nc3ccc(-c4nnn[nH]4)cn3)c(Oc3ccc(F)c(F)c3)c2)nc1 [Example 15, Ethyl 6-(5-(3,4-difluorophenoxy)-6-[5-(1H-tetrazol-5-yl)pyridin-2-ylamino]pyridin-3-ylsulfanyl)nicotinate] | ≥ 1.4
OCc1ccc(Sc2cnc(Nc3ccc(-c4nnn[nH]4)cn3)c(Oc3ccc(F)c(F)c3)c2)nc1 [Example 16, 6-{5-(3,4-Difluorophenoxy)-6-[5-(1H-tetrazol-5-yl)pyridin-2-ylamino]pyridin-3-ylsulfanyl}pyridin-3-ylmethanol] | ≥ 1.4
COCCCSc1cnc(Nc2ccc(-c3nnn[nH]3)cn2)c(Oc2ccc(F)cc2)c1 [Example 17, [3-(4-Fluorophenoxy)-5-(3-methoxypropylsulfanyl)pyridin-2-yl]-[5-(1H-tetrazol-5-yl)pyridin-2-yl]amine] | ≥ 1.4
COCCSc1cnc(Nc2ccc(-c3nnn[nH]3)cn2)c(Oc2ccc(F)cc2)c1 [Example 18, [3-(4-Fluorophenoxy)-5-(2-methoxyethylsulfanyl)pyridin-2-yl]-[5-(1H-tetrazol-5-yl)pyridin-2-yl]amine] | ≥ 1.4
COCCCCSc1cnc(Nc2ccc(-c3nnn[nH]3)cn2)c(Oc2ccc(F)cc2)c1 [Example 19, 3-(4-Fluorophenoxy)-5-[(4-methoxybutylsulfanyl)pyridin-2-yl]-[5-(1H-tetrazol-5-yl)pyridin-2-yl]amine] | ≥ 1.4
OCCCSc1cnc(Nc2ccc(-c3nnn[nH]3)cn2)c(Oc2ccc(F)cc2)c1 [Example 20, 3-{5-(4-Fluorophenoxy)-6-[5-(1H-tetrazol-5-yl)pyridin-2-ylamino]pyridin-3-ylsulfanyl}propan-1-ol] | ≥ 1.4
